Here are results for 1 substance from patent publication US20060216292A1.

The target of this test is T1, TAP-tagged PTK7 (Homo sapiens (Human)) (UniProt Q13308).
T1 sequence: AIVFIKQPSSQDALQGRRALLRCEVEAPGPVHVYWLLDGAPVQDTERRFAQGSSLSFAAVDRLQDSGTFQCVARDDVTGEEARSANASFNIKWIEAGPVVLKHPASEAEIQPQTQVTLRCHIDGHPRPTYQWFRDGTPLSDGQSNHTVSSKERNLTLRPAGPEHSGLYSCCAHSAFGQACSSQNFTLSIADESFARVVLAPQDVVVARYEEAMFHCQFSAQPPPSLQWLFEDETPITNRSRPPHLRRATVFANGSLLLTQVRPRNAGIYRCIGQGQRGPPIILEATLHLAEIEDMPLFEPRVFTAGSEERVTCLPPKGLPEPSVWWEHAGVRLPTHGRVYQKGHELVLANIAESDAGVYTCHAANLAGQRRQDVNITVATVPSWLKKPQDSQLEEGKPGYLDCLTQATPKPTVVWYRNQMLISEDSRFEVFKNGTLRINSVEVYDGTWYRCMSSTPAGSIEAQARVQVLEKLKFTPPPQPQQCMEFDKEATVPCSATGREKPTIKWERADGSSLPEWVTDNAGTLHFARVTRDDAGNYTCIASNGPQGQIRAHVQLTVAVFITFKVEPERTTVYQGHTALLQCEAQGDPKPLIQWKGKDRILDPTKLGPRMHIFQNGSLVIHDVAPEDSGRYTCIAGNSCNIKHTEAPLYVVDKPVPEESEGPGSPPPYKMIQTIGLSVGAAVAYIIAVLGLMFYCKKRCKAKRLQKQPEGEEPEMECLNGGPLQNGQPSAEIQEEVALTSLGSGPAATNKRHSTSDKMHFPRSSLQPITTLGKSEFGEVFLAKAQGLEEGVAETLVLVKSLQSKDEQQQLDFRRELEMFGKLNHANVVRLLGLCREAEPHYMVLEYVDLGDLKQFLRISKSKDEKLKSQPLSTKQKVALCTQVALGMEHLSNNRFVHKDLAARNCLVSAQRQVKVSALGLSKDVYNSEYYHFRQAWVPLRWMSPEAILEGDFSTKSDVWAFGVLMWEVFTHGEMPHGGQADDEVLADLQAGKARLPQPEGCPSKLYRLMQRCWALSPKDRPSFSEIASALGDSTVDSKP
Description: TAP purification of tagged bait, LC-MS/MS; novel interactor.

These are yes or no findings as the source states them, for the method shown. In cells and extracts the contact can be indirect. Binding calls can cover weak binding; strength is not graded here. Where a sequence is shown, tags or fusion partners need not be part of it.

Turning to HIFPH3/EGLN3 (enzyme), the binding result is listed as “binds”.
